Measurements reported in publication doi:10.1101/2025.08.18.670856.
Results are given in words; binding and its absence hold for the method and conditions named. Binding seen in cells or lysates may run through a third protein. Some results given as binding are weak or reduced against the parent protein; the word gives no strength. Tags and fused reporters may be left off the sequences shown.

Chains of the proteins cited; added tags and fusions are not shown.
UniProt Q16665: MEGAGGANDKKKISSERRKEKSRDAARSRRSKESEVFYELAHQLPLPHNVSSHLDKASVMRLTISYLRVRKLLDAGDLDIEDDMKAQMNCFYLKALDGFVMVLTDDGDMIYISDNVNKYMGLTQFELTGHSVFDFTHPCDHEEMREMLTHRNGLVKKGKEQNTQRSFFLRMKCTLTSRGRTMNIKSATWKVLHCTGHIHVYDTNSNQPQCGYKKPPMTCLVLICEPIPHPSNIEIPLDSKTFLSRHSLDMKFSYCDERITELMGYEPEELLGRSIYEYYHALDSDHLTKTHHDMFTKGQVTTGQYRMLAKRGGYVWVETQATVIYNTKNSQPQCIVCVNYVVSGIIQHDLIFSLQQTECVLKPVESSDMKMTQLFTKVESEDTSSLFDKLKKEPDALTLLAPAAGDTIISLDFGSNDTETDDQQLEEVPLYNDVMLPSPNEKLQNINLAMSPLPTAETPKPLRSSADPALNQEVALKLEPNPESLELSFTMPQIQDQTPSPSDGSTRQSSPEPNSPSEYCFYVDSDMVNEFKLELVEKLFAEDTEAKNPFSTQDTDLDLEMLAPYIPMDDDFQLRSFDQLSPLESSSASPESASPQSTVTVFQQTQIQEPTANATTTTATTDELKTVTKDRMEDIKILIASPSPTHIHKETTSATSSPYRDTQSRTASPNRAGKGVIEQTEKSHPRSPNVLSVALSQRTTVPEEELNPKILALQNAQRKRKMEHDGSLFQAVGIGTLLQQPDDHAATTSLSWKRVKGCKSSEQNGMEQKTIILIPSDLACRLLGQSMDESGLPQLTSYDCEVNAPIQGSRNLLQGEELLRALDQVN

Biological target: T1, FetA-HIS (wild type, from the plasmid AHSG-bio-His) (human) (UniProt P02765)
T1 sequence: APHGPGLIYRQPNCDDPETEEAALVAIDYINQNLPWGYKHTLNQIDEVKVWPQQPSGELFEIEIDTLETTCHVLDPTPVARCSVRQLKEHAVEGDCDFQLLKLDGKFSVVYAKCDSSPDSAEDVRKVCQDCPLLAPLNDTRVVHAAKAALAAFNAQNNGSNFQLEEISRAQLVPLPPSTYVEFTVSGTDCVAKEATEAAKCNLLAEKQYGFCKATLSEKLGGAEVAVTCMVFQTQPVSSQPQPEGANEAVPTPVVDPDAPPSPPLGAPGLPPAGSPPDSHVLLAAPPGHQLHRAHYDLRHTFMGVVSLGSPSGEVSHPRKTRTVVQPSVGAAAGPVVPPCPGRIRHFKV
Experiment: co-IP

- binding: binds
Substance: HIF-1α-HA (from the plasmid HA-HIF1alpha-pcDNA3), in HEK293 nuclear lysate (from UniProt Q16665 1-826)
